Data as given in PubChem BioAssay AID2417 (National Center for Advancing Translational Sciences (NCATS), 2010).
In all, about 140,000 compounds went through this assay and about 4,300 (3.1%) were called active. The inconclusive results got no clear call from the source; some entries with a clear call stand among them for comparison.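 Rule for the calls: active = readout at or below -70, meaning at least 70% loss of cells showing the perinucleolar compartment, a nuclear body marking cancer cells; inconclusive = readout between -30 and a set limit; inactive = the rest.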

Experiment: High Content Assay for Compounds that inhibit the Assembly of the Perinucleolar Compartment;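 note: plate controls were DMSO wells for no effect and camptothecin positive control wells for full effect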
Conditions: PC3M PTB-GFP, PNC prevalence imaging, 16 h; at 10 µM; hits give low values
Procedure, shortened: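 Read-out is percentage of cells bearing a perinucleolar compartment, from automated 20x imaging of fixed, Hoechst-stained PC3M PTB-GFP cells. Cells were seeded 4 h, then exposed 16 h to compound (23 nl of library stock) in duplicate plates.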

SMILES | activity change (PNC), negative = inhibition
Cc1cc(=O)c2ccccc2n1CC(=O)NCc1ccccc1 | active: -95.9%
COCCn1c(=NC(=O)c2cc3ccccc3oc2=O)sc2cc(S(N)(=O)=O)ccc21 | inconclusive: -69.2%
S=C(NCCCN1CCOCC1)NCCCN1CCOCC1 | inconclusive: -32.8%
COc1ccc(S(=O)(=O)N(C)CC(=O)N2CCC(C)CC2)cc1Cl | inconclusive: -36.2%
COc1ccccc1CN1CCN(C(=O)c2ccncc2)CC1 | inactive: 35.2%
CCOc1ccc(Nc2ncnc(N)n2)cc1 | inconclusive: -45.2%
CN(c1ccc(C(=O)O)cc1)S(=O)(=O)c1ccc(Cl)cc1 | inactive: 10.2%
O=C(O)CCS(=O)(=O)c1cccc2cccnc12 | inconclusive: -46.5%
CC1CCC(NC(=O)Cn2ncc3ccccc32)CC1 (centres undefined) | inconclusive: -30.3%
CCCC1S/C(=N/N=C/c2ccc(C)cc2)N(Cc2ccc(OC)cc2)C1=O (centres undefined) | inconclusive: -41.8%
C=CCn1c(=NC(=O)CN2C(=O)CCC2=O)sc2cc(S(N)(=O)=O)ccc21 | inconclusive: -50.6%
CC(=O)C1=C(O)C(=O)N(CCN(C)C)C1c1ccc(Cl)cc1 (centres undefined) | inconclusive: -55.8%
O=C(NCc1ccc(F)cc1)C1CCN(S(=O)(=O)c2ccc3c(c2)OCCCO3)CC1 | inconclusive: -67.3%
CCC1(CC)Cc2ccccc2C(=C(C#N)C#N)N1 | inconclusive: -44.8%
COc1cc([C@H]2c3[nH]c4ccccc4c3C[C@H]3C(=O)N4[C@@H](c5cc(OC)c(OC)c(OC)c5)c5[nH]c6ccccc6c5C[C@H]4C(=O)N23)cc(OC)c1OC | inconclusive: -74.2%
Cc1ccc(CSCC(=O)N/N=C/c2cccc(OC3CSC3)c2)cc1 | inconclusive: -32.6%
CC1(C)Oc2ccc(NC(=O)C3COc4ccccc4O3)cc2O1 (centres undefined) | inactive: 4.15%
C=CCn1c(C#N)c(N)sc1=N | inconclusive: -53%
CCn1c(CNc2ccc(F)cc2)nnc1SCC(=O)Nc1ccc(OC)cc1OC | inconclusive: -69.6%
CCOC(=O)CN(C(=O)c1ccccc1)c1ccccc1C | inconclusive: -36.6%

SMILES | activity change (PNC), negative = inhibition
CN(C)S(=O)(=O)c1cc(NC(=O)CN2C(=O)NC3(CCCc4ccccc43)C2=O)ccc1Cl (centres undefined) | inactive: 71.5%
Cc1ccc(C(=O)NC=C(Cl)Cl)cc1 | inconclusive: -66.2%
CC(=O)/C(=N/Nc1ccccc1)N1CCOCC1 | inconclusive: -40.9%
O=C(Nc1cc(S(=O)(=O)Nc2ccc(Cl)cc2)ccc1N1CCCCC1)c1ccc(F)cc1Cl | inconclusive: -39.9%
Cn1c(=O)c2c(ncn2CC(=O)NC(C)(C)C)n(C)c1=O | inconclusive: -50.5%
O=C(CN1C(=O)COc2ccc(Cl)cc21)N1CCc2ccccc21 | inactive: 17.2%
CC(=O)c1cnc2cc(-c3ccc(C)cc3)nn2c1C | active: -100%
COc1ccccc1NC(=S)NC(NC(=O)c1ccco1)C(Cl)(Cl)Cl (centres undefined) | inactive: 7.6%
CSc1ccccc1NC(=O)c1cnccn1 | inconclusive: -52.3%
CC(=O)Nc1ccc(NC(=O)c2ccco2)cc1 | inconclusive: -45.3%
CCOC(=O)/C(N=Nc1c(Br)cc(Br)cc1Br)=C(\C)O | inconclusive: -41.6%
COC(=O)CCc1c(C)c(C#N)c2nc3ccccc3n2c1N1CCCC1 | inconclusive: -59.8%
Cc1cc(C)cc(NC(=O)CCNS(=O)(=O)c2ccc3c(c2)oc(=O)n3C)c1 | active: -100%
CCn1c(=S)[nH]c2cc(C(=O)OC)ccc2c1=O | inconclusive: -65.3%
CCCCc1ccc(-c2ccc(C)cc2O)nc1 | inconclusive: -46.1%
C=CCn1c(SCC(=O)NC2CCS(=O)(=O)C2)nc2scc(C3CC3)c2c1=O (centres undefined) | inconclusive: -64.3%
CCCc1nc(SCC(=O)Nc2nnc(CC)s2)c2c(C)c(C)sc2n1 | inconclusive: -33.7%
COc1ccc(Cl)cc1S(=O)(=O)Oc1ccc(NC(C)=O)cc1 | inconclusive: -42.4%
CC(C)Nc1ncnc2ccc(Br)cc12 | inactive: 25.6%
CS(=O)(=O)c1ccc(N)cc1 | active: -88.3%

SMILES | activity change (PNC), negative = inhibition
COc1cccc(Cn2cnc3c(NS(=O)(=O)c4ccc(Cl)cc4)c(C)c(C)cc32)c1 | inconclusive: -71.6%
O=C(Nc1ncc(Cc2ccc(SC(F)F)cc2)s1)c1ccc(OC(F)F)cc1 | active: -85.6%
Cc1ccccc1-c1nc(CS(=O)(=O)CC(=O)NCCN2CCOCC2)c(C)o1 | inconclusive: -36.3%
N#CC1=C(N)SC(N)=C(C#N)C1CCc1ccccc1 | inactive: 31%
COc1ccc(CCCc2nnc(SCC(=O)Nc3ccc(C)c(C)c3)o2)cc1 | inconclusive: -51.9%
CCOC(=O)c1cnc(-n2nc(C)cc2C)nc1NC(C)c1ccccc1 (centres undefined) | inconclusive: -47.6%
NC(=O)c1ccsc1NC(=O)COc1ccccc1 | inconclusive: -71.6%
CCC(=O)Nc1nc2c(OC)ccc(C)c2s1 | inactive: 46.8%
Cn1c2c(c(=O)n(C)c1=O)C(NC(=O)c1ccco1)(C(F)(F)F)C(=O)N2 (centres undefined) | inconclusive: -45.9%
NNc1nc(N)c2c(n1)-c1ccccc1CC21CCCC1 | inconclusive: -66.4%
CCn1c(COc2ccccc2C)nnc1SCC(=O)N1CCN(c2ccccc2)CC1 | inconclusive: -58.5%
COc1ccccc1NC(=O)C1C2C=CC(O2)C1C(=O)O (centres undefined) | inactive: -10.8%
COc1cccc2cc(C(=O)NC(C)C3CCCO3)c(=O)oc12 (centres undefined) | active: -86.6%
CCOC(=O)N1CCC(N2Cc3cccc(C(=O)Nc4cc(F)ccc4F)c3C2=O)CC1 | inconclusive: -39.4%
COc1ccc(NC(=O)CSc2nnc(Cc3cccn3C)n2-c2ccc(F)cc2)cc1OC | inactive: -9.96%
CCCCn1c(CCNC(=O)c2cccs2)nc2ccccc21 | inconclusive: -48.4%
Nc1nonc1C(=O)NCCNCc1cc(Br)ccc1OCc1ccccc1F | inconclusive: -42%
O=S1(=O)CCC(N=Cc2cc(Br)ccc2O)C1 (centres undefined) | inconclusive: -51.5%
O=C(NCc1cccs1)C1CC(=O)N(c2ccc(F)cc2)C1 (centres undefined) | inconclusive: -63.3%

2 compounds picked at random from the list so far, as already listed:
SMILES | activity change (PNC), negative = inhibition
CCOC(=O)N1CCC(N2Cc3cccc(C(=O)Nc4cc(F)ccc4F)c3C2=O)CC1 | inconclusive: -39.4%
COc1cccc(Cn2cnc3c(NS(=O)(=O)c4ccc(Cl)cc4)c(C)c(C)cc32)c1 | inconclusive: -71.6%
